Laboratory results: the supplement of paper PMC10849652
The other results are listed elsewhere or left out.

Amino acid sequences for entries named in this document (tags omitted). A change or cut given only in a name is not applied to a line headed by its entry.
UniProt Q9NW68: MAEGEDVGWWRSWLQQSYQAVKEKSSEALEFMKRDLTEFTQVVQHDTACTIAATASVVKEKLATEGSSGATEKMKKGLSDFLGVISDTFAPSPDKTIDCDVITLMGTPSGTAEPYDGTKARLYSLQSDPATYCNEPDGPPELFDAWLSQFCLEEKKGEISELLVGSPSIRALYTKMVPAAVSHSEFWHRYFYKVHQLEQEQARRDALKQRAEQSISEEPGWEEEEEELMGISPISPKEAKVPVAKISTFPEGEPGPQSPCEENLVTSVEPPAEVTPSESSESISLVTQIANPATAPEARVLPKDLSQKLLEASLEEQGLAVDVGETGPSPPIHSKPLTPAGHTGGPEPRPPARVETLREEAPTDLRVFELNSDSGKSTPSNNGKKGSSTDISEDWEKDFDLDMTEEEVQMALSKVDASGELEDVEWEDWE
UniProt O75934: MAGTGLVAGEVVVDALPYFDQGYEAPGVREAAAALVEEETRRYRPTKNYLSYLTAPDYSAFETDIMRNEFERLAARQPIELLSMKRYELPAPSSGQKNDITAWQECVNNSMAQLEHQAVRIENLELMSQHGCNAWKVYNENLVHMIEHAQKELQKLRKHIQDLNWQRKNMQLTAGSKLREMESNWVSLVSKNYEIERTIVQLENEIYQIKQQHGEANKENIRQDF
UniProt P56945: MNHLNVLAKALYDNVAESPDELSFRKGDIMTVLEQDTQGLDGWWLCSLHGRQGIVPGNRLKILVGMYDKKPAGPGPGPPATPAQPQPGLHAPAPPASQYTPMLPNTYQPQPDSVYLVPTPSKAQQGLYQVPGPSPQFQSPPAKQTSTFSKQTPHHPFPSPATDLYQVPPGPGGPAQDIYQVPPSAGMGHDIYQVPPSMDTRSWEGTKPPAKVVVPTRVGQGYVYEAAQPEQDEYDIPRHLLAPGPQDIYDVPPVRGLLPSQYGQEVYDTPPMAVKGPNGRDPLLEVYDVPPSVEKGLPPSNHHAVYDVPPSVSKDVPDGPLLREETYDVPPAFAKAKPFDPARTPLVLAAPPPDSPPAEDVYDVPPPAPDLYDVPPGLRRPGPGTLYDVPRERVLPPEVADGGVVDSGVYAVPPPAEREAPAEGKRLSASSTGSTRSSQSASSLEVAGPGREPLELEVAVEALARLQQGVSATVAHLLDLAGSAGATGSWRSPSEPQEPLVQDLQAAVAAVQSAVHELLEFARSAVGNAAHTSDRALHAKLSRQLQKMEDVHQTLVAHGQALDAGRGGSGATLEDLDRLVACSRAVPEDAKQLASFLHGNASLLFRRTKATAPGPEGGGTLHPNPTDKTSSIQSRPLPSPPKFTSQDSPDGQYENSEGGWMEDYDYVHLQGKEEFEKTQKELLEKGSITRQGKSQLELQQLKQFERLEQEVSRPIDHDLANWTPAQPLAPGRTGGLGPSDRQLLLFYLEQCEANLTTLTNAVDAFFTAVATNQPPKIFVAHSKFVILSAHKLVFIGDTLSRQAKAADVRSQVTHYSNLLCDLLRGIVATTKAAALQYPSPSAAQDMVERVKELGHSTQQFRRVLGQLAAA
UniProt Q9H0E9, whole entry, looked up: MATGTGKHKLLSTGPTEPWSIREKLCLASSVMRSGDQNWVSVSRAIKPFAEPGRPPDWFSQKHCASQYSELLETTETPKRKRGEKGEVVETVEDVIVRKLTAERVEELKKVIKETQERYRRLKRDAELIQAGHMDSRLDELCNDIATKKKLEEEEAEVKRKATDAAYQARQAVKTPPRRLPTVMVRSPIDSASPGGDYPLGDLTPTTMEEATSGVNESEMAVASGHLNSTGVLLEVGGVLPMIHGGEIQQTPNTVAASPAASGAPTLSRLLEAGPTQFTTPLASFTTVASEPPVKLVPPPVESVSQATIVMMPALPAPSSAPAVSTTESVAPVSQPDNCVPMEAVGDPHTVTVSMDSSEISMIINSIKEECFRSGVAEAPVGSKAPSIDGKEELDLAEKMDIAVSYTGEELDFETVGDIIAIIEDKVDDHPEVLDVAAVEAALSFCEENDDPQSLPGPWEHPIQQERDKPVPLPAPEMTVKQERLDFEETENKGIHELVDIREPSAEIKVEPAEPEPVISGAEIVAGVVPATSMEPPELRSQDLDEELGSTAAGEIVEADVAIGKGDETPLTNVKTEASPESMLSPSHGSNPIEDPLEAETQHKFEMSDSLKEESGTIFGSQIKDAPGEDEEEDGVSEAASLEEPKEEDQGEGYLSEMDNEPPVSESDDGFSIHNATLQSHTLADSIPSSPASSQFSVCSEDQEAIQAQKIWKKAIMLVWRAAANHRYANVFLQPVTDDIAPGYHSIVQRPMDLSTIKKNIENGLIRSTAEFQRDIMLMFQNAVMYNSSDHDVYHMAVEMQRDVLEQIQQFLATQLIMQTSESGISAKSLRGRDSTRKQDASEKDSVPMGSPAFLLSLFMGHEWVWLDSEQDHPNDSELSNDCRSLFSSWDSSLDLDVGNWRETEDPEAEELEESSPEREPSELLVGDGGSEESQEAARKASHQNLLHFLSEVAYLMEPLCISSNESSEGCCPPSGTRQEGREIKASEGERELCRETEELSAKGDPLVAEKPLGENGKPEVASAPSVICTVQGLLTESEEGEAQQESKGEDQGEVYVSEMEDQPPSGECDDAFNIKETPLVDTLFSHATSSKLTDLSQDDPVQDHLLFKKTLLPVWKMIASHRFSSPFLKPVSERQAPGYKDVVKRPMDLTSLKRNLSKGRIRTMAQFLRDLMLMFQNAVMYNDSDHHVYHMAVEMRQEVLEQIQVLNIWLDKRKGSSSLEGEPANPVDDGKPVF
UniProt P54687: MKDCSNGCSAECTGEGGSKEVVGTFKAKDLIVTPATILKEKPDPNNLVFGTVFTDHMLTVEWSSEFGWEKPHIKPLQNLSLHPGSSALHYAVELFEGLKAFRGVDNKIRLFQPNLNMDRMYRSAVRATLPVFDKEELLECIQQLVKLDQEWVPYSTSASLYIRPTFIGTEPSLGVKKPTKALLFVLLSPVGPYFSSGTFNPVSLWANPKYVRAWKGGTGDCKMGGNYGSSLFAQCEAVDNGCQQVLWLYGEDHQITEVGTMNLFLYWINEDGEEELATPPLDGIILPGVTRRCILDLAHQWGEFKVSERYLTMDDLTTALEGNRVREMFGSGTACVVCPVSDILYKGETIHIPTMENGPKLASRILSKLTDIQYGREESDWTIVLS
UniProt O15382: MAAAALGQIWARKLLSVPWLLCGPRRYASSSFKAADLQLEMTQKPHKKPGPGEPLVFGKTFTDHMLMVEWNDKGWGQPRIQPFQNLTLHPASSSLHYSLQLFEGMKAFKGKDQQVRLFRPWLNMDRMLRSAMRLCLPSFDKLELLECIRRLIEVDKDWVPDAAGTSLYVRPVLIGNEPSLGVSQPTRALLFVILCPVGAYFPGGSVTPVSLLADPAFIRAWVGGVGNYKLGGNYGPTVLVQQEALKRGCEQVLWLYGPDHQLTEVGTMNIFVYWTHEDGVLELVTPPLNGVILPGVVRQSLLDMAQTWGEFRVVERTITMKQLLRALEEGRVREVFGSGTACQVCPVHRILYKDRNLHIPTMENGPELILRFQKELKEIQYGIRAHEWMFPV
UniProt Q86WA6: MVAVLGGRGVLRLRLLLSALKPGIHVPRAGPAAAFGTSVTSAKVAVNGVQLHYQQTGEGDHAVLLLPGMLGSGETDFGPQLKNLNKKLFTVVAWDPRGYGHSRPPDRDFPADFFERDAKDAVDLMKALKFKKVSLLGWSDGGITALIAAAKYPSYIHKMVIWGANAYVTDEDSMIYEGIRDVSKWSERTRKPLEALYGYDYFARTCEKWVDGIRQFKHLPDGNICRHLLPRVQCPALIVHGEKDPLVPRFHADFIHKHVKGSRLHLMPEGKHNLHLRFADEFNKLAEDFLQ
UniProt Q14692: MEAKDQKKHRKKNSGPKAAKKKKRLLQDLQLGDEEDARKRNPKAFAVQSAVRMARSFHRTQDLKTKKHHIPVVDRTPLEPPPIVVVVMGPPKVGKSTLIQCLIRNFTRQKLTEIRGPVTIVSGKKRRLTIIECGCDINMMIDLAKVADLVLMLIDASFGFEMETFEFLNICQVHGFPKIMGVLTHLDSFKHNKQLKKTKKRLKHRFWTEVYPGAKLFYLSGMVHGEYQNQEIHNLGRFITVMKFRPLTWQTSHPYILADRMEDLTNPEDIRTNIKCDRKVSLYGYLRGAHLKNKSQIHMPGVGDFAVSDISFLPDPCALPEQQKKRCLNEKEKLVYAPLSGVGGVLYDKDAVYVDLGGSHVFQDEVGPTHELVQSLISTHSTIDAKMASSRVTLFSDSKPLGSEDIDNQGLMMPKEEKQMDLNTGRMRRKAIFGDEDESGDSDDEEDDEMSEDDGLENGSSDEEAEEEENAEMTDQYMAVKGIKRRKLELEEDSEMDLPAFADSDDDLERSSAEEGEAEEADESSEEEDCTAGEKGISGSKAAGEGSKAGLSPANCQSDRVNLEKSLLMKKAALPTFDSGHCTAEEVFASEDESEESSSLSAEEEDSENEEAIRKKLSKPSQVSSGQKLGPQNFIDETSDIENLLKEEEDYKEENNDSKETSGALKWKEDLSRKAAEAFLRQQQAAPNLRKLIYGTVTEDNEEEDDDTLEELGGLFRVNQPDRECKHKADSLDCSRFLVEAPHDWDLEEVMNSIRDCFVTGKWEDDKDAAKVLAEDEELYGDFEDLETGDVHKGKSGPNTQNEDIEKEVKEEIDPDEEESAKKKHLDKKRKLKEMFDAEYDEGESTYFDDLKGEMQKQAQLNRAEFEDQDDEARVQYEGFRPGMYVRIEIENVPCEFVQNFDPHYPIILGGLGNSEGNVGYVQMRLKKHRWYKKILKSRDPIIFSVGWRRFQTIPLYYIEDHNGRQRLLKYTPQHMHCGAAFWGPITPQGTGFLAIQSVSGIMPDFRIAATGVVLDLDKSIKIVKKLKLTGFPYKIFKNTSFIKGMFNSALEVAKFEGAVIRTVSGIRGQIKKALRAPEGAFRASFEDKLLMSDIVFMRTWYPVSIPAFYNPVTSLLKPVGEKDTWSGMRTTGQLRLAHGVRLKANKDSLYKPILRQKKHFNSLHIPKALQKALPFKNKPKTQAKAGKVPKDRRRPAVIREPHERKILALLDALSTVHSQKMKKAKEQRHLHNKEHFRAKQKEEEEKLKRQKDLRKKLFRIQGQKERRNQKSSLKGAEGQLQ
UniProt Q9BXK5, whole entry, looked up: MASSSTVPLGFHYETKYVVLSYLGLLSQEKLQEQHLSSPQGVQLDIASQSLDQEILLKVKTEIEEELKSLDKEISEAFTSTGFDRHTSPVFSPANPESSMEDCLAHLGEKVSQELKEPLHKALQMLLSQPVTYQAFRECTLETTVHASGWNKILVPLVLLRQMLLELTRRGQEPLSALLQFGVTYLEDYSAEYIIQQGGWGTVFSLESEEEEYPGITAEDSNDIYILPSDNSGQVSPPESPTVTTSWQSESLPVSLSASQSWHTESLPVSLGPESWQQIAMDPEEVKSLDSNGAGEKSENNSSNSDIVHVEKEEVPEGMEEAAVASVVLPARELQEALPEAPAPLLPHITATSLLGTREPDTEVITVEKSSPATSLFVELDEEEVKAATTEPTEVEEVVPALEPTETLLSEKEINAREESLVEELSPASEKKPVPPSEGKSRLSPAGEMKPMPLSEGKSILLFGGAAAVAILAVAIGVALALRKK
UniProt P12694: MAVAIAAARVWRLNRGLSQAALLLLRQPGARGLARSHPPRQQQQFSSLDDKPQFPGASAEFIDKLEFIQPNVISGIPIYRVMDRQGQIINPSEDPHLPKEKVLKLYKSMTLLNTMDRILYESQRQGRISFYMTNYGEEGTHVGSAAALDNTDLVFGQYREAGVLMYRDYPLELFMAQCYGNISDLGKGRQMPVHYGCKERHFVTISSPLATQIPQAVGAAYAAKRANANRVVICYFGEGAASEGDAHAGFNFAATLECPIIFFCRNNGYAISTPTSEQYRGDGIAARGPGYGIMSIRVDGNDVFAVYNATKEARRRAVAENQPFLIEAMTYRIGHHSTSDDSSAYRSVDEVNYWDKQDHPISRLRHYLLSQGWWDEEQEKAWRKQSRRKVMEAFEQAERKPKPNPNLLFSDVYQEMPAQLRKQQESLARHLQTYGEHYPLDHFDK
UniProt Q9BQE9, whole entry, looked up: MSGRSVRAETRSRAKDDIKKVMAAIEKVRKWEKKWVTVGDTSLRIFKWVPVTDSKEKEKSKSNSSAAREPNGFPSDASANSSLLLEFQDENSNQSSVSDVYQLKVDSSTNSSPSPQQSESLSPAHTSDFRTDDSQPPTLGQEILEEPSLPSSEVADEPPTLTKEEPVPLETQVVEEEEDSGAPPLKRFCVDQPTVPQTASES
UniProt Q9P287, whole entry, looked up: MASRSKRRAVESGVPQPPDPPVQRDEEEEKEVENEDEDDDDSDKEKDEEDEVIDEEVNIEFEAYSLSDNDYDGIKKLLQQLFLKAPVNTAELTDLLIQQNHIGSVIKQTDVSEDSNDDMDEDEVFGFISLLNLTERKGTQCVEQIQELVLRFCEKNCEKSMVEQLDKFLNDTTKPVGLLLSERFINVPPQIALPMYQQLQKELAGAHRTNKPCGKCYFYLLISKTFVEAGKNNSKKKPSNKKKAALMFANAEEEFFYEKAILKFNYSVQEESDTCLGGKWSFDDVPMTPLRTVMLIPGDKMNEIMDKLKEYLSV

Tests used:
Test in all cases: log2 fold change, soluble protein after heating vs DMSO (PISA); higher = thermal stabilisation; K562 lysate, 10 uM; active = over 0.2 and 3.5 SD of the protein, either way, in both replicates (recomputed)
erlotinib = compound: C#Cc1cccc(Nc2ncnc3cc(OCCOC)c(OCCOC)cc23)c1 [erlotinib]
Procedure, shortened: (§1)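 A 30 min treatment with 10 μM compound was applied to crude K562 extract at 1 mg/mL protein in PBS pH 7.4 with 1 mM MgCl2. Heating for 3 min spanned 48°C-58°C, after which aliquots were pooled, adjusted to 0.5% NP-40 at 4°C and spun at 21,000xg for 90 min. TMTpro 16plex LC-MS/MS of the supernatant, with channel sums equalised, gave values recorded as log-two fold change in thermal stability against solvent controls, from duplicates.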

[1] = compound: C/C(=N\NC(=O)C1=CC(=CC=C1)S(=O)(=O)N2CCOCC2)/C3=C(C=CC(=C3)Cl)O
Procedure, shortened: as §1

[2] = compound: C1=CC(=CC=C1C2=NC3=C(N2)C=C(C=C3)C(=O)N)OC4=CC=C(C=C4)Cl
Procedure, shortened: as §1

[3] = compound: C1=CC2=C(C=CC(=C2)/C=C\3/C(=O)NC(=NCC4=CC=CS4)S3)N=C1
Procedure, shortened: as §1

[4] = compound: C1=CC2=NC=CN=C2C=C1/C=C/3\C(=O)NC(=O)S3
Procedure, shortened: as §1

[5] = compound: C1=CC=C(C=C1)C2=NC(=C(N2)C3=CC=NC=C3)C4=CC(=C(C=C4)Cl)O
Procedure, shortened: as §1

[6] = compound: C1=CC=C2C(=C1)C3=NNC4=CC=CC(=C43)C2=O
Procedure, shortened: as §1

[7] = compound: C1CCN(C1)C(=O)NC2=CC=CC(=C2)NC3=NC=C(C(=N3)NCCC4=CN=CN4)Br
Procedure, shortened: as §1

[8] = compound: C1CN(CCC1(CC2=CC=C(C=C2)Cl)N)C3=NC=NC4=C3C=CN4
Procedure, shortened: as §1

IRAK-1-4 Inhibitor I = compound: C1COCCN1CCN2C3=CC=CC=C3N=C2NC(=O)C4=CC(=CC=C4)[N+](=O)[O-] [IRAK-1-4 Inhibitor I]
Procedure, shortened: as §1

ibrutinib = compound: C=CC(=O)N1CCC[C@@H](n2nc(-c3ccc(Oc4ccccc4)cc3)c3c(N)ncnc32)C1 [ibrutinib]
Procedure, shortened: as §1

[9] = compound: CC(=O)c1cnc2ccc(-c3cc(Cl)c(O)c(Cl)c3)nc2c1N[C@H]1CC[C@H](CN(C)C)CC1
Procedure, shortened: as §1

ralimetinib = compound: CC(C)(C)Cn1c(N)nc2ccc(-c3[nH]c(C(C)(C)C)nc3-c3ccc(F)cc3)nc21 [ralimetinib]
Procedure, shortened: as §1

[10] = compound: CC(C)(O)CC(=O)NCCn1ccc2ncnc(Nc3ccc(Oc4cccc(C(F)(F)F)c4)c(Cl)c3)c21
Procedure, shortened: as §1

[11] = compound: CC(C)C1=C2N=C(C=C(N2N=C1)NCC3=CC=CC=C3)NCCCCCCN
Procedure, shortened: as §1

[12] = compound: CC1=C(C(CC(=O)N1)C2=CC=C(C=C2)C(F)(F)F)C(=O)NC3=C(C=C4C(=C3)C=NN4)F
Procedure, shortened: as §1

[13] = compound: CC1=C(C2=C(C=C1)C(=O)C3=CC=CC=C3N2CCCN)C
Procedure, shortened: as §1

[14] = compound: CC1=C(C=C(C=C1)NC(=O)C2=CC(=CC=C2)C(C)(C)C#N)NC3=CC4=C(C=C3)N=CN(C4=O)C
Procedure, shortened: as §1

[15] = compound: CC1=C(C=C(C=C1)NC(=O)C2=CC(=CC=C2)N(C)C)NC(=O)C3=CC=C(C=C3)O
Procedure, shortened: as §1

[16] = compound: CC1=CC=C(C=C1)SC2=C3C=C(SC3=CN=C2)C(=O)N
Procedure, shortened: as §1

Target	log2 fold change (erlotinib)	log2 fold change [1]	log2 fold change [2]	log2 fold change [3]	log2 fold change [4]	log2 fold change [5]	log2 fold change [6]	log2 fold change [7]	log2 fold change [8]	log2 fold change (IRAK-1-4 Inhibitor I)	log2 fold change (ibrutinib)	log2 fold change [9]	log2 fold change (ralimetinib)	log2 fold change [10]	log2 fold change [11]	log2 fold change [12]	log2 fold change [13]	log2 fold change [14]	log2 fold change [15]	log2 fold change [16]
BSDC1 (UniProt Q9NW68)	inactive: -0.002	inactive: 0.01	inactive: -0.039	inactive: 0.046	inactive: -0.025	inactive: -0.024	inactive: 0.036	inactive: -0.029	inactive: 0	inactive: 0.059	inactive: 0.048	inactive: 0.008	inactive: -0.004	inactive: -0.023	inactive: 0.062	inactive: 0.038	inactive: 0.01	inactive: 0.022	inactive: -0.047	inactive: 0.011
BCAS2 (UniProt O75934)	inactive: 0.047	inactive: -0.038	inactive: 0.012	inactive: -0.005	inactive: 0.037	inactive: 0.034	inactive: -0.007	inactive: 0.017	inactive: 0.037	inactive: -0.009	inactive: 0.091	inactive: 0.02	inactive: 0.052	inactive: -0.026	inactive: 0.062	inactive: 0	inactive: -0.03	inactive: -0.01	inactive: -0.019	inactive: 0.009
BCAR1 isoform 6 (UniProt P56945)	inactive: 0.005	inactive: -0.043	inactive: 0.052	inactive: 0.048	inactive: -0.019	inactive: 0.019	inactive: -0.063	inactive: 0.041	inactive: 0.021	inactive: -0.017	inactive: 0.024	inactive: 0.02	inactive: -0.009	inactive: 0	inactive: 0.01	inactive: 0.03	inactive: -0.056	inactive: -0.014	inactive: 0.006	inactive: -0.033
BCOR (UniProt Q6W2J9)	inactive: 0.053	inactive: 0.069	inactive: 0.038	inactive: 0	inactive: -0.076	inactive: -0.032	inactive: 0.01	inactive: -0.049	inactive: -0.007	inactive: -0.033	inactive: 0.07	inactive: -0.078	inactive: 0.032	inactive: 0.035	inactive: -0.124	inactive: 0.054	inactive: -0.051	inactive: 0.094	inactive: -0.018	inactive: 0.035
BRD8 isoform 2 (UniProt Q9H0E9)	inactive: -0.003	inactive: 0.049	inactive: 0.064	inactive: 0.023	inactive: -0.003	inactive: 0.009	inactive: -0.007	inactive: 0.001	inactive: -0.023	inactive: -0.016	inactive: 0.064	inactive: 0.015	inactive: -0.02	inactive: -0.021	inactive: -0.005	inactive: -0.004	inactive: -0.022	inactive: 0.012	inactive: -0.007	inactive: -0.033
BCAT1 (UniProt P54687)	inactive: -0.007	inactive: 0.034	inactive: 0.028	inactive: -0.015	inactive: 0.009	inactive: -0.001	inactive: 0.003	inactive: -0.008	inactive: 0.01	inactive: 0.033	inactive: 0.019	inactive: 0.009	inactive: -0.002	inactive: -0.02	inactive: -0.01	inactive: -0.017	inactive: 0.003	inactive: 0.001	inactive: -0.012	inactive: -0.028
BLM (UniProt P54132)	inactive: -0.034	inactive: 0.061	inactive: -0.042	inactive: 0.011	inactive: 0.032	inactive: 0.079	inactive: -0.059	inactive: -0.026	inactive: -0.01	inactive: -0.02	inactive: 0.128	inactive: 0.026	inactive: -0.015	inactive: 0.031	inactive: -0.005	inactive: -0.019	inactive: 0.03	inactive: -0.058	inactive: 0.019	inactive: 0.036
BCAT2 (UniProt O15382)	inactive: -0.012	inactive: -0.001	inactive: 0.009	inactive: -0.012	inactive: -0.012	inactive: 0.008	inactive: -0.003	inactive: 0.015	inactive: 0.011	inactive: 0.014	inactive: 0.018	inactive: -0.003	inactive: 0.013	inactive: -0.045	inactive: -0.002	inactive: -0.013	inactive: -0.012	inactive: 0.008	inactive: -0.004	inactive: 0.009
BPHL (UniProt Q86WA6)	inactive: -0.054	active: -0.445	inactive: 0.033	inactive: 0.089	inactive: -0.135	inactive: -0.071	inactive: 0.118	inactive: -0.063	inactive: 0.082	inactive: -0.033	inactive: -0.073	inactive: -0.016	inactive: 0.047	inactive: 0.06	inactive: -0.045	inactive: 0	inactive: -0.015	inactive: 0.025	inactive: -0.004	inactive: -0.002
BMS1 (UniProt Q14692)	inactive: -0.029	inactive: -0.089	inactive: -0.027	inactive: 0.028	inactive: -0.046	inactive: 0.034	inactive: 0.039	inactive: 0.006	inactive: 0.01	inactive: -0.01	inactive: 0.095	inactive: 0.018	inactive: 0.018	inactive: -0.041	inactive: -0.008	inactive: -0.011	inactive: 0.007	inactive: 0.049	inactive: 0.034	inactive: 0.032
BTF3 (UniProt P20290)	inactive: -0.054	inactive: -0.015	inactive: 0.013	inactive: -0.006	inactive: -0.015	inactive: -0.014	inactive: 0.04	inactive: 0.004	inactive: -0.011	inactive: -0.013	inactive: 0	inactive: 0.014	inactive: -0.002	inactive: -0.009	inactive: 0.003	inactive: -0.001	inactive: 0.039	inactive: -0.025	inactive: -0.015	inactive: -0.012
BCL2L13 (UniProt Q9BXK5)	inactive: 0.018	inactive: -0.052	inactive: 0.025	inactive: 0.052	inactive: 0.033	inactive: -0.027	inactive: -0.099	inactive: -0.016	inactive: 0.044	inactive: 0.024	inactive: -0.004	inactive: -0.028	inactive: -0.011	inactive: -0.059	inactive: -0.02	inactive: -0.001	inactive: 0.003	inactive: -0.002	inactive: 0.016	inactive: -0.039
BCKDHA (UniProt P12694)	inactive: 0.007	inactive: 0.019	inactive: -0.007	inactive: 0.043	inactive: 0.128	inactive: 0.016	inactive: -0.107	inactive: -0.03	inactive: 0.089	inactive: 0.057	inactive: 0.007	inactive: 0.084	inactive: 0.029	inactive: 0.032	inactive: 0.026	inactive: -0.021	inactive: -0.058	inactive: 0.023	inactive: 0.025	inactive: -0.001
BCL7B (UniProt Q9BQE9)	inactive: -0.062	inactive: 0.243	inactive: 0.082	inactive: -0.022	inactive: 0.055	inactive: 0.036	inactive: 0.132	inactive: -0.124	inactive: 0.036	inactive: -0.08	inactive: -0.304	inactive: -0.044	inactive: 0.039	inactive: 0.033	inactive: -0.056	inactive: 0.101	inactive: -0.029	inactive: -0.038	inactive: 0.013	inactive: -0.057
BCCIP isoform 2 (UniProt Q9P287)	inactive: -0.012	inactive: -0.007	inactive: -0.016	inactive: 0.011	inactive: 0.014	inactive: 0.017	inactive: 0.036	inactive: 0.072	inactive: -0.028	inactive: -0.003	inactive: -0.02	inactive: 0.009	inactive: -0.013	inactive: 0.021	inactive: -0.001	inactive: 0.022	inactive: 0.031	inactive: -0.02	inactive: 0.008	inactive: 0.007
BAZ1B (UniProt Q9UIG0)	inactive: -0.022	inactive: -0.024	inactive: -0.026	inactive: 0.005	inactive: -0.016	inactive: 0.034	inactive: 0.001	inactive: 0.039	inactive: -0.029	inactive: -0.044	inactive: 0.063	inactive: -0.043	inactive: -0.054	inactive: 0.003	inactive: 0.058	inactive: 0.03	inactive: 0.036	inactive: -0.048	inactive: -0.012	inactive: -0.052

Quoted at random: two records from the list, in no set order.
Target	log2 fold change (erlotinib)	log2 fold change [1]	log2 fold change [2]	log2 fold change [3]	log2 fold change [4]	log2 fold change [5]	log2 fold change [6]	log2 fold change [7]	log2 fold change [8]	log2 fold change (IRAK-1-4 Inhibitor I)	log2 fold change (ibrutinib)	log2 fold change [9]	log2 fold change (ralimetinib)	log2 fold change [10]	log2 fold change [11]	log2 fold change [12]	log2 fold change [13]	log2 fold change [14]	log2 fold change [15]	log2 fold change [16]
BCL2L13 (UniProt Q9BXK5)	inactive: 0.018	inactive: -0.052	inactive: 0.025	inactive: 0.052	inactive: 0.033	inactive: -0.027	inactive: -0.099	inactive: -0.016	inactive: 0.044	inactive: 0.024	inactive: -0.004	inactive: -0.028	inactive: -0.011	inactive: -0.059	inactive: -0.02	inactive: -0.001	inactive: 0.003	inactive: -0.002	inactive: 0.016	inactive: -0.039
BPHL (UniProt Q86WA6)	inactive: -0.054	active: -0.445	inactive: 0.033	inactive: 0.089	inactive: -0.135	inactive: -0.071	inactive: 0.118	inactive: -0.063	inactive: 0.082	inactive: -0.033	inactive: -0.073	inactive: -0.016	inactive: 0.047	inactive: 0.06	inactive: -0.045	inactive: 0	inactive: -0.015	inactive: 0.025	inactive: -0.004	inactive: -0.002
